Measurements from paper doi:10.1101/2022.08.01.502314.
These are yes or no findings as the source states them, for the method shown. Binding seen in cells or lysates may run through a third protein. Some binding calls cover weakened binding; strength is not graded here.

Chains of the proteins cited; added tags and fusions are not shown. Lines headed by an entry give the natural chain unless they say otherwise; changes in a name come on top. A line that says so, or that is headed by a name, gives the form on record, which may keep a tag or linker.
UniProt Q15561: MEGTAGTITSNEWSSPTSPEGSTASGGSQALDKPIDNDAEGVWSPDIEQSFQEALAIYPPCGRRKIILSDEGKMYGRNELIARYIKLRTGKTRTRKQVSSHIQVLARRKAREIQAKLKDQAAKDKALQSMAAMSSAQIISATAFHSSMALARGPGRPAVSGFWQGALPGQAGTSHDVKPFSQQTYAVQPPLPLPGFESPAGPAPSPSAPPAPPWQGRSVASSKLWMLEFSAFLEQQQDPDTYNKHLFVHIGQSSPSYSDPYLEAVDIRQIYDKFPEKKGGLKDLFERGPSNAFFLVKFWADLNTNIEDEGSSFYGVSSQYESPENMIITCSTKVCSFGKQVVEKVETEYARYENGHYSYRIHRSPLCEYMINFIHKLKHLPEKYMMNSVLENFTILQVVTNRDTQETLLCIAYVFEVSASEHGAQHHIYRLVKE
UniProt P28347: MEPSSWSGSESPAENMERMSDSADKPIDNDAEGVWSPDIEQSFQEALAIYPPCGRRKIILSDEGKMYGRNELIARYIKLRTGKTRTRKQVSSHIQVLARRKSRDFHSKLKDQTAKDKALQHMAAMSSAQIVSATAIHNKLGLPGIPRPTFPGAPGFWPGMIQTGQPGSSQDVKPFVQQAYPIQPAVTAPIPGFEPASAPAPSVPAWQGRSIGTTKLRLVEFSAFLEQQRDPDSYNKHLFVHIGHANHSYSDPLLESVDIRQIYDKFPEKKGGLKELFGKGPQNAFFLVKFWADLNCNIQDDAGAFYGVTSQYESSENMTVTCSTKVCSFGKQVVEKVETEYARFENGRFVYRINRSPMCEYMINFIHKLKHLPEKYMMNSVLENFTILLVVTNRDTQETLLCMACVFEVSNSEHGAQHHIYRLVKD
UniProt P10275: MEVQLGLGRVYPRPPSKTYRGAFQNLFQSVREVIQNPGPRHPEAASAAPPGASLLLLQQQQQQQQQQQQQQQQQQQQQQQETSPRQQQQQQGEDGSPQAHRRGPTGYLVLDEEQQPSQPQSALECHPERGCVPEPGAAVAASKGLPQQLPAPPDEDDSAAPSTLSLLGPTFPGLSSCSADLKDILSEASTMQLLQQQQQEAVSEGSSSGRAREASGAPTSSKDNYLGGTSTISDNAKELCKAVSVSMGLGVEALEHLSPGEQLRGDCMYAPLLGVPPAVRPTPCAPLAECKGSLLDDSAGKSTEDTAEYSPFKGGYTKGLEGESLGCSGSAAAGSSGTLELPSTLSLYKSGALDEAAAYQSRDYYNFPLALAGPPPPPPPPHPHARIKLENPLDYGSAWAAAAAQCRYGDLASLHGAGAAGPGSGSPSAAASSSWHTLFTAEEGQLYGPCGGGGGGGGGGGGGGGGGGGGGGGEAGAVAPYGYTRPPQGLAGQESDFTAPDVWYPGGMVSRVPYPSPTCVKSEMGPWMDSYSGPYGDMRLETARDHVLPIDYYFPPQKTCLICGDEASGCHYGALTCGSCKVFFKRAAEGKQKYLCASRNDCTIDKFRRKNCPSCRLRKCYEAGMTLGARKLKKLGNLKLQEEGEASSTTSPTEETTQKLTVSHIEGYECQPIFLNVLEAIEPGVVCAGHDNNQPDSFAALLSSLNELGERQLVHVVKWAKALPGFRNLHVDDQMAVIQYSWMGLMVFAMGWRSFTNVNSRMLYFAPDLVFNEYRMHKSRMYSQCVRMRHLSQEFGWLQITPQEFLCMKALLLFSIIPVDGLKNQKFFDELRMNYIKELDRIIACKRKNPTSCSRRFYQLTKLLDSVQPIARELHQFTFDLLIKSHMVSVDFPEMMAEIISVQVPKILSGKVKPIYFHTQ
AR splicing variant V7 (AR_V7) expressed in HEK-293T cells (P10275-3, form named): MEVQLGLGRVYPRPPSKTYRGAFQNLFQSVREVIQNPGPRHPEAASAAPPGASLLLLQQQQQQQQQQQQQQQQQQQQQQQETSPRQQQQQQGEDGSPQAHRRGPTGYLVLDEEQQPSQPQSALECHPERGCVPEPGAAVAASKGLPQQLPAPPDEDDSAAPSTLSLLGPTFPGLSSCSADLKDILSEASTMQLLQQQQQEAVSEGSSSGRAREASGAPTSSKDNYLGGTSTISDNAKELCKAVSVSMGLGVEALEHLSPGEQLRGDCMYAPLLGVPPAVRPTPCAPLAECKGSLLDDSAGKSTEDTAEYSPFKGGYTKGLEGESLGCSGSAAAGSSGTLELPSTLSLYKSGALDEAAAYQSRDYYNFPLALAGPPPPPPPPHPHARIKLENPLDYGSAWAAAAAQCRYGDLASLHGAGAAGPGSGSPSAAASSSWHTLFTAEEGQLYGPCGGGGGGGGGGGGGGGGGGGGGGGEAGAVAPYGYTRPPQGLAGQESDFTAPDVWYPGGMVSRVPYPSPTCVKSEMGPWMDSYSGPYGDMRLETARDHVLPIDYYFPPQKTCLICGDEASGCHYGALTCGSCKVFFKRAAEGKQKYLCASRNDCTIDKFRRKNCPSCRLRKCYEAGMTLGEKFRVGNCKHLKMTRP

How the values were obtained:
[1] = biological target: FLAG-tagged full-length TEAD4 expressed in HEK-293T cells (human) (UniProt Q15561); assay: co-IP
[2] = biological target: 3xFLAG-tagged TEAD1 expressed in HEK-293T cells (UniProt P28347); assay: co-IP

## epitope-tagged full-length AR (AR-FL) expressed in HEK-293T cells (from UniProt P10275 1-920)
[1]
  binding: binds

## AR splicing variant V7 (AR_V7) expressed in HEK-293T cells (from UniProt P10275-3 1-644)
[2]
  binding: binds
[1]
  binding: binds
